PubChem BioAssay AID1159578, Peter MacCallum Cancer Centre, 2015

- Assay: 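siRNA pools altering how lymphatic endothelial cells close a scratch wound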 (primary screen)
- Cell system: human lymphatic endothelial cells
- Reagents: siRNA pool against human genes, 40 nM
- Time to read-out: 48 h after transfection
- Read-out: 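Cells stained with dye and imaged after a scratch; covered wound area and nuclei counted, duplicates averaged, migration set against mock wells and turned into a robust z-score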
- Scale: migration robust z-score: higher = faster migration into the scratch; nuclei per well: higher = more cells in the well
- Call rule: 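Pools averaging fewer than 3300 nuclei are never called; remaining pools count as changed when migration robust z lies outside -2 to 2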
- Meaning of the calls: active = migration changed; inactive = no migration change, or too few cells
The deposit covers about 18,000 reagents; shown is a random part of them. About 1,030 of all reagents (5.7%) were called active. 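Inactive calls also include pools with fewer than 3300 nuclei, whose migration was not assessed.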 Raw values vary from plate to plate and are shown uncorrected. Entries without a mark were called inactive. Further read-outs or replicates are left out here.

gene | migration robust z-score | migration class with cell-count check | nuclei per well, duplicate mean
TRAPPC9 (GeneID 83696) | -1.29 | migration z between -2 and 2; enough cells | 4939
ZNF383 (GeneID 163087) | -0.98 | migration z between -2 and 2; enough cells | 4918
ZMYND8 (GeneID 23613) | 0.99 | migration z between -2 and 2; enough cells | 6157
IFI27L1 (GeneID 122509) | -0.99 | migration z between -2 and 2; enough cells | 4556
CIC (GeneID 23152) | -1.18 | migration z between -2 and 2; enough cells | 7418
XRCC4 (GeneID 7518) | -1.12 | migration z between -2 and 2; enough cells | 5574
KRT1 (GeneID 3848) | -0.02 | migration z between -2 and 2; enough cells | 6408
PHF14 (GeneID 9678) | -1.29 | migration z between -2 and 2; enough cells | 5163
LINC00518 (GeneID 221718) | -2.04 (active) | migration z below -2; enough cells | 5980
CCR7 (GeneID 1236) | 0.02 | migration z between -2 and 2; enough cells | 7454
DNAAF3 (GeneID 352909) | -0.99 | migration z between -2 and 2; enough cells | 7402
CD274 (GeneID 29126) | 2.48 (active) | migration z above 2; enough cells | 5686
MTSS2 (GeneID 92154) | 0.79 | migration z between -2 and 2; enough cells | 6653
FADS3 (GeneID 3995) | 0.38 | migration z between -2 and 2; enough cells | 6764
CACNA1D (GeneID 776) | -1.03 | migration z between -2 and 2; enough cells | 5846
FAAH2 (GeneID 158584) | 0.99 | migration z between -2 and 2; enough cells | 5388
SEL1L (GeneID 6400) | 0.24 | migration z between -2 and 2; enough cells | 4646
OR13G1 (GeneID 441933) | -0.89 | migration z between -2 and 2; enough cells | 5833
EPHB2 (GeneID 2048) | -0.94 | migration z between -2 and 2; enough cells | 5502
LPGAT1 (GeneID 9926) | -0.6 | migration z between -2 and 2; enough cells | 6254
SLC10A5 (GeneID 347051) | -0.32 | migration z between -2 and 2; enough cells | 5912
PAQR5 (GeneID 54852) | -2.84 (active) | migration z below -2; enough cells | 3411
CMTM1 (GeneID 113540) | 0.32 | migration z between -2 and 2; enough cells | 5224
SOFU1 (GeneID 135927) | -0.24 | migration z between -2 and 2; enough cells | 5570
CHRNA9 (GeneID 55584) | 1.04 | migration z between -2 and 2; enough cells | 4764
EIF3A (GeneID 8661) | -1.68 | migration z between -2 and 2; enough cells | 6434
OMA1 (GeneID 115209) | 0.52 | migration z between -2 and 2; enough cells | 5446
LSM6 (GeneID 11157) | 0.12 | migration z between -2 and 2; enough cells | 4892
RAB40C (GeneID 57799) | 1.58 | migration z between -2 and 2; enough cells | 5460
SEC14L1 (GeneID 6397) | -0.57 | migration z between -2 and 2; enough cells | 5726
PTPRF (GeneID 5792) | -0.75 | migration z between -2 and 2; enough cells | 5978
HHATL (GeneID 57467) | -1.51 | migration z between -2 and 2; enough cells | 4789
TMSB10 (GeneID 9168) | 0.62 | migration z between -2 and 2; enough cells | 6454
NDUFV1-DT (GeneID 100505621) | -1.5 | migration z between -2 and 2; enough cells | 6058
ZNF304 (GeneID 57343) | -1.75 | under 3300 nuclei; migration not judged | 2817
SNAP29 (GeneID 9342) | -0.66 | migration z between -2 and 2; enough cells | 5258
IGFL1 (GeneID 374918) | -0.88 | migration z between -2 and 2; enough cells | 6192
IL20RB (GeneID 53833) | 0.66 | migration z between -2 and 2; enough cells | 4014
GPSM1 (GeneID 26086) | 0.18 | migration z between -2 and 2; enough cells | 5685
PRLR (GeneID 5618) | 0.02 | migration z between -2 and 2; enough cells | 5950
CD300LF (GeneID 146722) | -0.55 | migration z between -2 and 2; enough cells | 5692
METTL8 (GeneID 79828) | -0.52 | migration z between -2 and 2; enough cells | 3564
UQCRFS1 (GeneID 7386) | 0.8 | migration z between -2 and 2; enough cells | 7106
ACTG1 (GeneID 71) | 0.1 | migration z between -2 and 2; enough cells | 4932
PTPRC (GeneID 5788) | -0.08 | migration z between -2 and 2; enough cells | 5554
SLC25A21 (GeneID 89874) | -0.56 | migration z between -2 and 2; enough cells | 5784
ATXN7L1 (GeneID 222255) | 0.83 | migration z between -2 and 2; enough cells | 7065
OR8U3 (GeneID 219479) | -0.54 | migration z between -2 and 2; enough cells | 6350
HYLS1 (GeneID 219844) | 0.45 | migration z between -2 and 2; enough cells | 4782
UBXN2B (GeneID 137886) | -0.03 | migration z between -2 and 2; enough cells | 5522
TRIM25 (GeneID 7706) | -0.39 | migration z between -2 and 2; enough cells | 5154
GMFG (GeneID 9535) | -1.47 | migration z between -2 and 2; enough cells | 5249
IDH3A (GeneID 3419) | 0.86 | migration z between -2 and 2; enough cells | 6406
UBE2C (GeneID 11065) | 1.87 | migration z between -2 and 2; enough cells | 5220
GUCY2EP (GeneID 390226) | 0.26 | migration z between -2 and 2; enough cells | 6415
REC114 (GeneID 283677) | -0.33 | migration z between -2 and 2; enough cells | 6292
BCO2 (GeneID 83875) | 0.96 | migration z between -2 and 2; enough cells | 5929

Entries above marked active (3):
gene | migration robust z-score | migration class with cell-count check | nuclei per well, duplicate mean
LINC00518 (GeneID 221718) | -2.04 (active) | migration z below -2; enough cells | 5980
CD274 (GeneID 29126) | 2.48 (active) | migration z above 2; enough cells | 5686
PAQR5 (GeneID 54852) | -2.84 (active) | migration z below -2; enough cells | 3411
